According to PMC10378164:
These are yes or no findings as the source states them, for the method shown. Binding seen in cells or lysates may run through a third protein. Some results given as binding are weak or reduced against the parent protein; the word gives no strength.

Amino acid sequences for entries named in this document (tags omitted).
UniProt P23458: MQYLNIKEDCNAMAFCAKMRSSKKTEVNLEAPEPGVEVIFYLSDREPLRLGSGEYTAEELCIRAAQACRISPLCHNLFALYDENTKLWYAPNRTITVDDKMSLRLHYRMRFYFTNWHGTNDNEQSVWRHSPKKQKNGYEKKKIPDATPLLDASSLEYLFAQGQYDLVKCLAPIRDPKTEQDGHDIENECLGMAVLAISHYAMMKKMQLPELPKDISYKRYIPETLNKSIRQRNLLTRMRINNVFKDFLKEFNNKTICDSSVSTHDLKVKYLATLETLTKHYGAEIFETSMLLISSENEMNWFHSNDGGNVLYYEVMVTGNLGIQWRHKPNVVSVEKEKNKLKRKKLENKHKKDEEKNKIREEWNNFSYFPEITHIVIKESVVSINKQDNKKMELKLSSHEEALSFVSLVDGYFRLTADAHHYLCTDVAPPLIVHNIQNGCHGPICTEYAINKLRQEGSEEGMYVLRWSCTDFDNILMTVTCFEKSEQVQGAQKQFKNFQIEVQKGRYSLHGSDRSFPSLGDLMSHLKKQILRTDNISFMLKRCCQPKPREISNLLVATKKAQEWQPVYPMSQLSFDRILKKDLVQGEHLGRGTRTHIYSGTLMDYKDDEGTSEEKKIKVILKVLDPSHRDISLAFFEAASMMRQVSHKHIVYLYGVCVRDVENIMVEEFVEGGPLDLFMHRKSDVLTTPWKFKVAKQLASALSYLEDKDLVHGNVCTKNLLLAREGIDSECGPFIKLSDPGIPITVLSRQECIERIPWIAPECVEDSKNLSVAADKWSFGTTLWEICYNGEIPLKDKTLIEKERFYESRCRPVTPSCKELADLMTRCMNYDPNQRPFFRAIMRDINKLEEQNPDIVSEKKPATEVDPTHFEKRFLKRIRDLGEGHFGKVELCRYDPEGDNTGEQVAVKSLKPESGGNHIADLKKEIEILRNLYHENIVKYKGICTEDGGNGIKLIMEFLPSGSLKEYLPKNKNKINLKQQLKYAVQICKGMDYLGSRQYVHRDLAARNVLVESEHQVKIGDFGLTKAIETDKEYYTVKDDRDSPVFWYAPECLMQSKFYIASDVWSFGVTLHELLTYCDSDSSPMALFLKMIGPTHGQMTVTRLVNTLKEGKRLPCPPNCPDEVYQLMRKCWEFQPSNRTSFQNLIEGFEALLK
UniProt P42224: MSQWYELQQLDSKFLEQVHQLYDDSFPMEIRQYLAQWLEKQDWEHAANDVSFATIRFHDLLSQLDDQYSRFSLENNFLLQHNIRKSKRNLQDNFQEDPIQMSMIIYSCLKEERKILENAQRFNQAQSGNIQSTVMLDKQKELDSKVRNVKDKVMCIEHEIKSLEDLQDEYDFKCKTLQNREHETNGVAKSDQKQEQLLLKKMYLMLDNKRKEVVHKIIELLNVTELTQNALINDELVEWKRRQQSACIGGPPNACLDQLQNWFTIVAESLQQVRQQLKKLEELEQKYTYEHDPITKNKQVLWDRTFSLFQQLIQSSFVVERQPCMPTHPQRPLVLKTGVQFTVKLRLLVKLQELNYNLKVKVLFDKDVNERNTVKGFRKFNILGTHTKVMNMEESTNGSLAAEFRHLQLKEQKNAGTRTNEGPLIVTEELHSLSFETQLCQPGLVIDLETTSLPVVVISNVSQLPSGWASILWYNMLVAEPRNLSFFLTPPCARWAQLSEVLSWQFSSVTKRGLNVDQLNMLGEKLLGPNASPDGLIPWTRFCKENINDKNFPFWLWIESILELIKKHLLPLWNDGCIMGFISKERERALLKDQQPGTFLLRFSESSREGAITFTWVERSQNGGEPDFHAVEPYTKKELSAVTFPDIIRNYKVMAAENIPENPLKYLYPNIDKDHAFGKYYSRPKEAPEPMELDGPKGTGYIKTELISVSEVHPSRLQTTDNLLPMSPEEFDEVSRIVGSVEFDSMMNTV

Molecular target: JAK1 (human (endogenous in Caski and SW756)) (UniProt P23458)
Experiment: co-IP; immunoprecipitation with anti-JAK1 antibody (Pierce co-immunoprecipitation kit) from Caski/Ctrl, Caski/B3, SW756/Ctrl and SW756/B3 cells; immunoblot for STAT1 and STAT3; more interaction in SERPINB3-expressing cells

- binding: binds
Substance: STAT1 (from UniProt P42224 1-750)
